From the supplement of paper PMC10849652
The other results are listed elsewhere or left out.

By UniProt entry, the sequences of proteins in these tests, tags left out. Where a name states a change or a piece, a line headed by the entry shows the natural chain unless it says otherwise.
UniProt Q8N6S5: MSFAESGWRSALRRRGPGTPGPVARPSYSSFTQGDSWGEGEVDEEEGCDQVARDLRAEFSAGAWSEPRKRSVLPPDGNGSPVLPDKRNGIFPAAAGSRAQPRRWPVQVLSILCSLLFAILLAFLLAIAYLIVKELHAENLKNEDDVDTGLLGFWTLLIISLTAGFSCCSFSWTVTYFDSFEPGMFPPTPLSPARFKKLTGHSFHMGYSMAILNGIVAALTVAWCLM
UniProt P54709, whole entry, looked up: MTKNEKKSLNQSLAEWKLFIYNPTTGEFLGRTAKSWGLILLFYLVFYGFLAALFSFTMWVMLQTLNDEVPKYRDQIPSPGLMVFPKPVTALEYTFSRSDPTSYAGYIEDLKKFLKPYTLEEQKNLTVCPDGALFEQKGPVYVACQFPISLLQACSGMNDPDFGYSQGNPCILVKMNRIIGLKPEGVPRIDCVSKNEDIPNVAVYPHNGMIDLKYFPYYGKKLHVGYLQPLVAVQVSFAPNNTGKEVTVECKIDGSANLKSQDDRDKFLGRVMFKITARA
UniProt Q9UI12, whole entry, looked up: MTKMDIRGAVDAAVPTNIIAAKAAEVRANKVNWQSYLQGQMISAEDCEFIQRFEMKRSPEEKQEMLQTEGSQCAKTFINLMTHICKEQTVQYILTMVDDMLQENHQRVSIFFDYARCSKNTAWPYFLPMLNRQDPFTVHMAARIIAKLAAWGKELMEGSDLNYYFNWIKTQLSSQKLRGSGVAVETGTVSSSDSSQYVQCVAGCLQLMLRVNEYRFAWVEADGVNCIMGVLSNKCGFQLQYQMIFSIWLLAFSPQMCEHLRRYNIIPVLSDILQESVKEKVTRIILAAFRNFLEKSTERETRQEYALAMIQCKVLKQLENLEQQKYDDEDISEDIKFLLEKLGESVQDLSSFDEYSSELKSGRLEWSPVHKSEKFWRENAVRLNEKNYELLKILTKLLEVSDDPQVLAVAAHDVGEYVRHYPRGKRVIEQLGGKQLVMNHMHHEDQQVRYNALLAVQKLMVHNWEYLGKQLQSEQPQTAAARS
UniProt Q9UII2: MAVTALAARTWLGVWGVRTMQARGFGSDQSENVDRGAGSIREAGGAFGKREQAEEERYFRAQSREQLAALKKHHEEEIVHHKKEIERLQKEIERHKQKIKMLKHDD
UniProt P31939: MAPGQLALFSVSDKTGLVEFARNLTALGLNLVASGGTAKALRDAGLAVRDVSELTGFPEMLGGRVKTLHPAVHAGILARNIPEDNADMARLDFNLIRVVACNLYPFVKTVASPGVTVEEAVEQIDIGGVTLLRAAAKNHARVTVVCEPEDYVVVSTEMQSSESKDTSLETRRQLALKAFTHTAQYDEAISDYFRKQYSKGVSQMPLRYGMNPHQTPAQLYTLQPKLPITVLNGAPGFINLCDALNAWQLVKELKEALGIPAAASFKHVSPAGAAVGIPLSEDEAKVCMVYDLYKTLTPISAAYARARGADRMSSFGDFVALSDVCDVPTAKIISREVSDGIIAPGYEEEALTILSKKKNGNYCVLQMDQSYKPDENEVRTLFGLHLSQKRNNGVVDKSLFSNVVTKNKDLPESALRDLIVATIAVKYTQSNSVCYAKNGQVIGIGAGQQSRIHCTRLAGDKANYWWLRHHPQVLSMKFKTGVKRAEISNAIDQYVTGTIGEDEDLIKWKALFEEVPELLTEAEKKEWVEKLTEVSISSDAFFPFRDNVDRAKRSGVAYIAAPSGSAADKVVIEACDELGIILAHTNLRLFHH
UniProt Q93084: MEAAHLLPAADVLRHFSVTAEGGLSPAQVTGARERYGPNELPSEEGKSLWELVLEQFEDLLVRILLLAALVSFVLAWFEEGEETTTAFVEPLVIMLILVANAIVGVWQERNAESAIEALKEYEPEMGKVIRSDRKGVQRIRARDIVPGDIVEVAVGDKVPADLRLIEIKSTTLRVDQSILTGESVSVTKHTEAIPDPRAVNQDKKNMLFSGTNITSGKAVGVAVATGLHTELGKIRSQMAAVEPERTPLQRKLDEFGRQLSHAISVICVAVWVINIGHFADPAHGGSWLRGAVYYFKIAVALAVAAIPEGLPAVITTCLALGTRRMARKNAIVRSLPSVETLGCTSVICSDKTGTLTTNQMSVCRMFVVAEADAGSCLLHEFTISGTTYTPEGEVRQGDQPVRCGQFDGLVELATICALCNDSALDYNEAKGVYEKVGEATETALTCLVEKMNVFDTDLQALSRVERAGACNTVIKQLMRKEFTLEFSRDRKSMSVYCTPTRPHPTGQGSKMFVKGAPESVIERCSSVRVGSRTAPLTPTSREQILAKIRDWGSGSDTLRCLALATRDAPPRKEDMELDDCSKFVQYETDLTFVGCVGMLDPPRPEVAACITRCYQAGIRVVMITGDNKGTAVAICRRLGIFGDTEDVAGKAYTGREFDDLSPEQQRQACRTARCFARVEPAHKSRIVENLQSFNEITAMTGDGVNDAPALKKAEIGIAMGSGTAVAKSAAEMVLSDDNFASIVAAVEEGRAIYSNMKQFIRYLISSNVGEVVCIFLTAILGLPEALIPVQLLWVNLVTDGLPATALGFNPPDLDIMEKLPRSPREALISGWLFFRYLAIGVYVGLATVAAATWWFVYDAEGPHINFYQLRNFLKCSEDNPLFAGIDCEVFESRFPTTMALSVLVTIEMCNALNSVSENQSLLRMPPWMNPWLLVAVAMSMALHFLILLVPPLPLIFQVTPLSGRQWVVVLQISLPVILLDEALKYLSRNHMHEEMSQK
UniProt Q9Y4P1: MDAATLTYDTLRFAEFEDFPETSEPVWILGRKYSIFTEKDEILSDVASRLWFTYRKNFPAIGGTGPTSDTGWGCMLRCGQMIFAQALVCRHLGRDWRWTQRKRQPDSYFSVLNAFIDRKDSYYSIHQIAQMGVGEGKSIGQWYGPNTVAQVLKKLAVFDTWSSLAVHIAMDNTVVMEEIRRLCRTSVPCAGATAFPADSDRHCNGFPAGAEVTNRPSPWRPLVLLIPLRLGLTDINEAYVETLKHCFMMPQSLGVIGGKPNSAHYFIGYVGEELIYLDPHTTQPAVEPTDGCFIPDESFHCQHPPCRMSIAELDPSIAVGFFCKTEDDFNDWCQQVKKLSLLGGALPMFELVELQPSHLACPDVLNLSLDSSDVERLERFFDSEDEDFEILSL
UniProt Q9H7F0: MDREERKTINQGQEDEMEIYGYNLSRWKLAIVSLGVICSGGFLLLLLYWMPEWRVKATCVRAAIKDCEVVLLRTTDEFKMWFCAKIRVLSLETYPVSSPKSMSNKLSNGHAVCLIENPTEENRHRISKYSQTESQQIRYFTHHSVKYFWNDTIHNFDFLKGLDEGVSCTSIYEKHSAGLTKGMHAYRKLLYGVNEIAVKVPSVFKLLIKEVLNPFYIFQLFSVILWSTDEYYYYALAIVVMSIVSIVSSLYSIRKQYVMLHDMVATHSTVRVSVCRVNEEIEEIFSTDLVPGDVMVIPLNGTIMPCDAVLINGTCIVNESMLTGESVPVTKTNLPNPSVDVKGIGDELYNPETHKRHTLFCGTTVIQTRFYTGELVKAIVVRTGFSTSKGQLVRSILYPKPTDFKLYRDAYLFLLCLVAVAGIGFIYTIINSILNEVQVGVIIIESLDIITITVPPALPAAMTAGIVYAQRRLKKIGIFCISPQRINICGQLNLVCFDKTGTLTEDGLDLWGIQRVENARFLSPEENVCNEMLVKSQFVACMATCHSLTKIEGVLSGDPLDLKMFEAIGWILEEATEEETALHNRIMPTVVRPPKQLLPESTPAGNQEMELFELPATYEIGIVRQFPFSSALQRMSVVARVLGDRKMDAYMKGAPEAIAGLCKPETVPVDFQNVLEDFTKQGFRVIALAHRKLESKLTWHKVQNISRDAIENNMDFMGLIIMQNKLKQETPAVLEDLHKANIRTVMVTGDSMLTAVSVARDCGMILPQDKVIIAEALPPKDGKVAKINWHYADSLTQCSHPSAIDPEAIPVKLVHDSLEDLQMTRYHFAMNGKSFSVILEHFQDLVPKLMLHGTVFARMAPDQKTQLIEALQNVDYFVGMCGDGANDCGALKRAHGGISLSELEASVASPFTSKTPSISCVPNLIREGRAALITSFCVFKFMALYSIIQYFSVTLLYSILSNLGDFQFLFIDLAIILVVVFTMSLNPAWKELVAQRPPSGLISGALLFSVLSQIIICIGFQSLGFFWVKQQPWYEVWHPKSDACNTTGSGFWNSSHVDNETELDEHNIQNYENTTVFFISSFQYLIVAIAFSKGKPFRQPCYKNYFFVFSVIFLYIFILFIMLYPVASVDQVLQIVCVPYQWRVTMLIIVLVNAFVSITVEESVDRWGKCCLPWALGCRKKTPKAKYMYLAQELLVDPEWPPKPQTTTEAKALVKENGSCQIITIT
UniProt P36542: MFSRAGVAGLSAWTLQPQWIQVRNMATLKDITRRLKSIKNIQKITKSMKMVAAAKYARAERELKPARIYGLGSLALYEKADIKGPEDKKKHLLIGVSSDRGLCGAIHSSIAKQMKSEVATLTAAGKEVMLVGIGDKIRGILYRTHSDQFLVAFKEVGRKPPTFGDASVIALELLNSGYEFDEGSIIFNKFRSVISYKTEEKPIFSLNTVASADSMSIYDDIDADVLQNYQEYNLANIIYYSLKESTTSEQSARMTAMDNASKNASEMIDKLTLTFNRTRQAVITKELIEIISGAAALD
UniProt Q66PJ3: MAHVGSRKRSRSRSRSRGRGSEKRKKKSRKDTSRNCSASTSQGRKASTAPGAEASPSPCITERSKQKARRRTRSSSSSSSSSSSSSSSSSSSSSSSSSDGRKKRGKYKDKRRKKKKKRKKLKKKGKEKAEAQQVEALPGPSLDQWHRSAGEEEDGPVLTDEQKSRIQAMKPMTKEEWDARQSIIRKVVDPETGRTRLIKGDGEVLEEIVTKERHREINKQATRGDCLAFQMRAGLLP
UniProt P56385: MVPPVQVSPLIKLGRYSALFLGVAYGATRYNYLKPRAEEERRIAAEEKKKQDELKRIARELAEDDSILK
UniProt P54707, whole entry, looked up: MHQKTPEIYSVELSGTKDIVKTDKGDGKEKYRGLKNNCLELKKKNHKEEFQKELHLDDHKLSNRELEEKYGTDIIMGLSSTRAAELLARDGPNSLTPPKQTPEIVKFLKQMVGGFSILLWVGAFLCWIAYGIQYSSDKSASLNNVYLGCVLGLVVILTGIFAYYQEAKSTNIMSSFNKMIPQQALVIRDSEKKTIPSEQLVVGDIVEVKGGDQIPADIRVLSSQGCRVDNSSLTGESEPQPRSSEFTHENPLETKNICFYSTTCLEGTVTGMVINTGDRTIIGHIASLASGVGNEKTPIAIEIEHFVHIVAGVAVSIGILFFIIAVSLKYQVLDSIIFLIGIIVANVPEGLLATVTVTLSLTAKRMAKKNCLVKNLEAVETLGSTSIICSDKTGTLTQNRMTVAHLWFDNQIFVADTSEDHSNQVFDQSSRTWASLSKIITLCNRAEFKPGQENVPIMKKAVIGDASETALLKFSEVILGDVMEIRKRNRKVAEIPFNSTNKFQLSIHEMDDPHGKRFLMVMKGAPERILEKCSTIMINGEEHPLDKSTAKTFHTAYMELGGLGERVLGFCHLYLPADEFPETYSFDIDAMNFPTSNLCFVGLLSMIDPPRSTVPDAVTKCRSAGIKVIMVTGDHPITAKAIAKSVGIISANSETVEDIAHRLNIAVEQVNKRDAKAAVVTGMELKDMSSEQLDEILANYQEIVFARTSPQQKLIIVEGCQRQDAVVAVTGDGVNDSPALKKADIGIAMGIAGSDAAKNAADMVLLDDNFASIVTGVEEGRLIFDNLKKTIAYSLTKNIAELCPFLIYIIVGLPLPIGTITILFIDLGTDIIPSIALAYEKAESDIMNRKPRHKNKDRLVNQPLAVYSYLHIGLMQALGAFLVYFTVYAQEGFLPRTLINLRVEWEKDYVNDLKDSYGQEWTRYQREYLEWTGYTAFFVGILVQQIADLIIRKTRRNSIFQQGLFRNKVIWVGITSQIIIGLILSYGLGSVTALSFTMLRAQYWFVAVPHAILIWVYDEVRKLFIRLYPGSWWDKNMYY

Key:
Test in all cases: log2 fold change, soluble protein after heating vs DMSO (PISA); higher = thermal stabilisation; K562 cells, 10 uM, 30 min; active = over 0.2 and 3.5 SD of the protein, either way, in both replicates (recomputed)
[1] = compound: CC1=C(C=C(C=C1)NC(=O)C2=CC(=CC=C2)C(C)(C)C#N)NC3=CC4=C(C=C3)N=CN(C4=O)C
Summary of the method: (§1)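 Quantification of soluble protein used TMTpro 16plex LC-MS/MS, with channel sums equalised. Samples were the supernatant after 21,000xg for 90 min of pooled aliquots from K562 cells (2×10^6 cells/mL) treated with 10 μM compound for 30 min, heated for 3 min over 48°C-58°C, and extracted in PBS with 0.5% NP-40 at 4°C. Values, from duplicates, describe thermal stability against control samples on a log2 fold-change scale.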

[2] = compound: CC1=C(C=C(C=C1)NC(=O)C2=CC(=CC=C2)N(C)C)NC(=O)C3=CC=C(C=C3)O
Summary of the method: as §1

[3] = compound: CC1=CC=C(C=C1)SC2=C3C=C(SC3=CN=C2)C(=O)N
Summary of the method: as §1

[4] = compound: CC1=NC(=CC=C1)C2=C(N=C(N2)C(C)(C)C)C3=CC4=NC=CN=C4C=C3
Summary of the method: as §1

[5] = compound: CCCCN(Cc1ccc(C(=O)NO)cc1)C(=O)Nc1ccccc1 [Nexturastat A]
Summary of the method: as §1

[6] = compound: CCCS(=O)(=O)Nc1ccc(F)c(C(=O)c2c[nH]c3ncc(-c4ccc(Cl)cc4)cc23)c1F [vemurafenib]
Summary of the method: as §1

[7] = compound: CCCS(=O)(=O)Nc1ccc(F)c(C(=O)c2c[nH]c3ncc(Cl)cc23)c1F
Summary of the method: as §1

[8] = compound: CCCc1cc(C)[nH]c(=O)c1CNC(=O)c1cc(-c2ccnc(N3CCN(C)CC3)c2)cc2c1cnn2C(C)C
Summary of the method: as §1

[9] = compound: CCN(CC)Cc1ccc2cc(COC(=O)Nc3ccc(C(=O)NO)cc3)ccc2c1 [givinostat]
Summary of the method: as §1

[10] = compound: CCN(CCCOc1ccc2c(Nc3cc(CC(=O)Nc4cccc(F)c4)[nH]n3)ncnc2c1)CCOP(=O)(O)O [barasertib]
Summary of the method: as §1

[11] = compound: CC[C@@H]1C(=O)N(C)c2cnc(Nc3ccc(C(=O)NC4CCN(C)CC4)cc3OC)nc2N1C1CCCC1
Summary of the method: as §1

[12] = compound: CC[C@@H]1C(=O)N(C)c2cnc(Nc3ccc(C(=O)N[C@H]4CC[C@H](N5CCN(CC6CC6)CC5)CC4)cc3OC)nc2N1C(C)C [volasertib]
Summary of the method: as §1

[13] = compound: CC[C@H](C)N1C=C(C2=C(C=C(C=C21)C3=CN=C(C=C3)N4CCNCC4)C(=O)NCC5=C(C=C(NC5=O)C)C)C
Summary of the method: as §1

[14] = compound: CC[C@H](C)[C@@H](C(=O)N[C@@H]([C@@H](C)O)C(=O)N[C@@H](CC(C)C)C(=O)[C@]1(CO1)C)NC(=O)[C@H]([C@@H](C)CC)N(C)C(=O)C [epoxomicin]
Summary of the method: as §1

[15] = compound: CCn1cc(-c2ccnc3[nH]c(-c4cccc(CN(C)C)c4)cc23)c(-c2ccc(NC(=O)N(C)C)cc2)n1
Summary of the method: as §1

[16] = compound: CN(C)CC(=O)Nc1ccc2[nH]c(=O)c3ccccc3c2c1
Summary of the method: as §1

[17] = compound: CN1C2=C(C3=C1C(=O)N(N=C3)CC4=CC(=CC=C4)N)SC(=C2)S(=O)C
Summary of the method: as §1

[18] = compound: CN1CCC(CNc2ccc3ncc(-c4cccc(OC(F)(F)F)c4)n3n2)CC1
Summary of the method: as §1

[19] = compound: CCn1c(C(=O)N(C2CC2)C2CC2)cc2c3c(ncn3C)c(Nc3cc(C)n(C)n3)nc21
Summary of the method: as §1

[20] = compound: CN(CCOC1=CC=C(C=C1)C[C@H]2C(=O)NC(=O)S2)C3=CC=CC=N3 (racemic) [rosiglitazone]
Summary of the method: as §1

Target | log2 fold change [1] | log2 fold change [2] | log2 fold change [3] | log2 fold change [4] | log2 fold change [5] | log2 fold change [6] | log2 fold change [7] | log2 fold change [8] | log2 fold change [9] | log2 fold change [10] | log2 fold change [11] | log2 fold change [12] | log2 fold change [13] | log2 fold change [14] | log2 fold change [15] | log2 fold change [16] | log2 fold change [17] | log2 fold change [18] | log2 fold change [19] | log2 fold change [20]
ARL6IP6 (UniProt Q8N6S5) | inactive: -0.112 | inactive: -0.038 | inactive: 0.009 | inactive: -0.071 | inactive: 0.106 | inactive: 0 | inactive: 0.049 | inactive: 0.034 | inactive: 0.099 | inactive: -0.048 | inactive: 0.154 | inactive: -0.007 | inactive: -0.043 | inactive: -0.086 | inactive: 0.004 | inactive: 0.004 | inactive: 0.029 | inactive: 0.01 |  | 
ATP1A1 (UniProt P05023) | inactive: 0.002 | inactive: 0.01 | inactive: 0.015 | inactive: 0.025 | inactive: -0.019 | inactive: 0.017 | inactive: 0.005 | inactive: 0.068 | inactive: -0.001 | inactive: -0.02 | inactive: 0.058 | inactive: 0.059 | inactive: -0.029 | inactive: -0.025 | inactive: -0.026 | inactive: -0.009 | inactive: -0.053 | active: 0.26 |  | 
ATP1B3 (UniProt P54709) | inactive: 0 | inactive: -0.015 | inactive: -0.02 | inactive: 0.046 | inactive: -0.065 | inactive: 0.005 | inactive: -0.036 | inactive: -0.018 | inactive: -0.055 | inactive: -0.021 | inactive: 0.06 | inactive: 0.094 | inactive: -0.022 | inactive: -0.033 | inactive: -0.028 | inactive: 0.012 | inactive: -0.063 | inactive: 0.168 |  | 
ATP6V1H (UniProt Q9UI12) | inactive: 0.028 | inactive: -0.016 | inactive: 0.045 | inactive: 0.014 | inactive: -0.008 | inactive: -0.004 | inactive: 0.077 | inactive: 0.022 | inactive: 0.03 | inactive: 0.018 | inactive: -0.085 | inactive: -0.093 | inactive: 0.069 | inactive: 0.098 | active: -0.244 | inactive: 0.012 | inactive: -0.026 | inactive: -0.069 |  | 
ATP5IF1 (UniProt Q9UII2) | inactive: -0.035 | inactive: 0.009 | inactive: -0.005 | inactive: 0.021 | inactive: -0.041 | inactive: -0.078 | inactive: -0.043 | inactive: -0.022 | inactive: -0.005 | inactive: 0.026 | inactive: -0.149 | inactive: 0.141 | inactive: -0.078 | inactive: -0.041 | inactive: 0.013 | inactive: -0.13 | inactive: -0.04 | inactive: 0.037 |  | 
ATIC (UniProt P31939) | inactive: 0.083 | inactive: -0.022 | inactive: 0.059 | inactive: 0.022 | inactive: -0.076 | inactive: 0.025 | inactive: 0.052 | inactive: 0.019 | inactive: -0.036 | inactive: 0.013 | inactive: -0.032 | inactive: 0.021 | inactive: 0.029 | inactive: 0.04 | inactive: -0.016 | inactive: 0.023 | inactive: -0.123 | inactive: 0.029 |  | 
ATP1A4 (UniProt Q13733) | inactive: 0.017 | inactive: 0.029 | inactive: 0.141 | inactive: 0.065 | inactive: -0.03 | inactive: -0.137 | inactive: -0.08 | inactive: -0.026 | inactive: -0.216 | inactive: 0 | inactive: 0.125 | inactive: 0.07 | inactive: -0.025 | inactive: 0.081 | inactive: -0.056 | inactive: -0.05 | inactive: -0.057 | active: 0.26 |  | 
ATP2A3 isoform 2 (UniProt Q93084) | inactive: -0.024 | inactive: -0.001 | inactive: -0.013 | inactive: 0.004 | inactive: 0 | inactive: -0.004 | inactive: 0.032 | inactive: 0.042 | inactive: -0.01 | inactive: 0.011 | inactive: -0.142 | inactive: -0.208 | inactive: 0.046 | inactive: 0.06 | inactive: -0.047 | inactive: -0.028 | inactive: -0.016 | inactive: 0.028 |  | 
ATG4B isoform 2 (UniProt Q9Y4P1) | inactive: -0.046 | inactive: -0.287 | inactive: 0.218 | inactive: -0.072 | inactive: 0.132 | inactive: 0.087 | inactive: -0.02 | inactive: 0.031 | inactive: 0.126 | inactive: 0.126 | inactive: -0.007 | inactive: -0.441 | inactive: 0.16 | inactive: -0.013 | inactive: 0.039 | inactive: 0.08 | inactive: 0.1 | inactive: -0.302 |  | 
ATP13A3 (UniProt Q9H7F0) | inactive: 0.027 | inactive: 0.031 | inactive: -0.068 | inactive: 0.012 | inactive: -0.042 | inactive: -0.014 | inactive: -0.02 | inactive: -0.076 | inactive: 0.025 | inactive: -0.001 | inactive: -0.085 | inactive: 0.077 | inactive: 0.016 | inactive: 0 | inactive: -0.022 | inactive: -0.012 | inactive: -0.011 | active: -0.401 |  | 
ATP5F1C (UniProt P36542) | inactive: -0.015 | inactive: -0.009 | inactive: 0.014 | inactive: 0.019 | inactive: -0.009 | inactive: -0.01 | inactive: 0 | inactive: -0.021 | inactive: -0.003 | inactive: -0.009 | inactive: 0.02 | inactive: 0.045 | inactive: -0.03 | inactive: 0.004 | inactive: -0.014 | inactive: -0.019 | inactive: -0.025 | inactive: 0.087 | inactive: 0.023 | inactive: -0.004
ARL6IP4 (UniProt Q66PJ3) | inactive: -0.048 | inactive: 0.016 | inactive: -0.005 | inactive: 0 | inactive: 0.001 | inactive: -0.07 | inactive: -0.019 | inactive: -0.038 | inactive: 0.005 | inactive: -0.01 | inactive: 0.008 | inactive: -0.009 | inactive: -0.023 | inactive: 0.014 | inactive: -0.025 | inactive: 0.001 | inactive: -0.065 | inactive: 0.01 |  | 
ATP5ME (UniProt P56385) | inactive: 0.036 | inactive: -0.037 | inactive: 0.031 | inactive: 0.011 | inactive: -0.035 | inactive: -0.003 | inactive: -0.041 | inactive: -0.041 | inactive: 0.027 | inactive: 0.007 | inactive: 0.004 | inactive: 0.038 | inactive: -0.048 | inactive: 0.075 | inactive: 0.002 | inactive: -0.054 | inactive: 0.018 | inactive: 0.069 |  | 
ATP12A isoform 2 (UniProt P54707) | inactive: -0.001 | inactive: -0.006 | inactive: 0 | inactive: 0.005 | inactive: -0.132 | inactive: -0.03 | inactive: -0.072 | inactive: -0.021 | inactive: -0.009 | inactive: 0.015 | inactive: 0.081 | inactive: 0 | inactive: -0.029 | inactive: 0.013 | inactive: -0.031 | inactive: -0.047 | inactive: -0.085 | active: 0.242 |  | 
